The other results are listed elsewhere or left out. Further columns of the screen follow, without active or inactive calls. Most of these compounds were active or inconclusive in the main read-out, so they are no random draw. The note in brackets gives the kind of curve behind each potency; many fits are weak.
Test: IkB Signaling
Details: ABC-DLBCL IkBa-CBG/CBR dual luciferase ratio (green luciferase fused to IkBa over red control in OCI-Ly3 lymphoma cells), 4 h
In short: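 Luminescence ratio of IκBα-fused green versus native red beetle luciferase in OCI-Ly3 cells, 4 h post-doxycycline with compound; red signal alone, scaled from basal (0%) to zero light (-100%), flagged nonspecific or cytotoxic effects.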

[1] = measured here: control luc red channel unless noted

SMILES: COc1cccc(C(c2c(O)cc(C)n(Cc3ccco3)c2=O)N2CCC(C)CC2)c1 (stereo not given)
- AC50 [1]: 0.316 µM [falling, full curve, poor fit]

SMILES: COc1ccc(-c2nc(C)c(CCNC(=O)c3cc(OC)c(OC)c(OC)c3)s2)cc1OC
- AC50 [1]: 25.1 µM [falling, single point]

SMILES: O=C(NCc1ccccc1)c1cc2ccccc2o1
- AC50 [1]: 0.501 µM [falling, partial curve, poor fit]

SMILES: Cc1ccc2c(c1)c(=O)c(C(=O)c1ccncc1)cn2CC(=O)Nc1ccc(C(C)C)cc1
- AC50 [1]: 1.58 µM [falling, full curve, poor fit]

SMILES: Cc1ccc(N2CC(NC(=O)c3ccc(Br)o3)CC2=O)cc1C (stereo not given)
- AC50 [1]: 7.94 µM [rising, single point]

SMILES: O=C(NC1=NCCS1)C1COc2ccccc2O1 (stereo not given)
- AC50 [1]: 12.6 µM [falling, partial curve]

SMILES: Cc1nnc(N2CCN(c3ccccc3F)CC2)c2c1nnn2Cc1ccccc1Cl
- AC50 [1]: 0.251 µM [falling, full curve, poor fit]

SMILES: CCOc1ccc(NCc2cccn2-c2nnc(N3CCC(C(=O)NCc4ccc(C)cc4)CC3)s2)cc1
- AC50 [1]: 25.1 µM [falling, partial curve]

SMILES: COc1ccc2nc3oc(C(=O)N(C)c4ccc(Cl)cc4)cc3cc2c1
- AC50 [1]: 31.6 µM [falling, single point]

SMILES: O=C(Nc1ccc(N2CCCC2)cc1)c1cccc(F)c1
- AC50 [1]: 3.98 µM [falling, full curve]

SMILES: O=C(NCCc1ccccc1)NC1CCCCC1
- AC50 [1]: 20 µM [falling, single point]

SMILES: CCCN1C(=O)CN(C2CCCCC2)C(=O)C1c1ccc(OC)c(OC)c1 (stereo not given)
- AC50 [1]: 3.16 µM [rising, full curve, poor fit]

SMILES: COc1ccc(NC(=O)Cn2c(=O)n(CCC(=O)NCCc3ccc(OC)c(OC)c3)c(=O)c3ccccc32)cc1Cl
- AC50 [1]: 1 µM [rising, partial curve, poor fit]

SMILES: O=C(C1CCN(S(=O)(=O)c2ccccc2)CC1)N(CCc1ccccc1)Cc1ccco1
- AC50 [1]: 25.1 µM [falling, partial curve]

SMILES: Cc1cccc(-n2ncc(C(=O)N3CCN(C(=O)c4ccco4)CC3)c2C2CCN(C(=O)OC(C)(C)C)CC2)c1
- AC50 [1]: 0.0398 µM [falling, full curve, poor fit]

SMILES: Cc1ccc2c(=O)cc(C(=O)Nc3ccc(S(=O)(=O)Nc4onc(C)c4C)cc3)oc2c1
- AC50 [1]: 12.6 µM [falling, partial curve]

SMILES: COc1cccc([C@@H]2Nc3ccc(C(=O)O)cc3[C@@H]3C=CC[C@@H]32)c1OC
- AC50 [1]: 25.1 µM [falling, partial curve, poor fit]

SMILES: Cc1cc(C)c2[nH]c(=O)c(CN(Cc3nnnn3C3CCCC3)C3CCCCC3)cc2c1
- AC50 [1]: 12.6 µM [falling, partial curve]

SMILES: CCOc1ccc(S(=O)(=O)n2cnc3cc(C)c(C)cc32)cc1
- AC50 [1]: 31.6 µM [falling, partial curve]

SMILES: Cc1ccc(S(=O)(=O)c2cc3c(=O)n4ccccc4nc3n(Cc3ccco3)c2=N)cc1C
- AC50 (measured here: IkB-luc green channel): 10 µM [rising, partial curve]
- AC50 (measured here: control luc red channel): 10 µM [falling, partial curve]

SMILES: COc1ccc(C)cc1NC(=O)C1CCCN(S(=O)(=O)c2ccc3c(c2)oc(=O)n3C)C1 (stereo not given)
- AC50 [1]: 20 µM [falling, single point]

SMILES: CCCn1c(NC(=O)c2ccc(Cl)c(S(=O)(=O)N3CCCC3)c2)nc2ccccc21
- AC50 [1]: 1.58 µM [falling, partial curve]

SMILES: CC(=O)Nc1ccc(S(=O)(=O)N2CCN(c3ccccc3)CC2)cc1
- AC50 [1]: 15.8 µM [falling, partial curve]

SMILES: Cc1ccc(SCc2nc(-c3ccc(C(=O)NCc4ccccc4Cl)cc3)oc2C)cc1
- AC50 [1]: 3.98 µM [falling, full curve]

SMILES: Cc1ccc2c(c1)-c1c(cnn1CC(=O)N1CCCN(Cc3ccccc3F)C1)CO2
- AC50 [1]: 15.8 µM [falling, partial curve]

SMILES: COc1cccc(CNC(=O)CN(c2ccc(C(C)C)cc2)S(=O)(=O)c2c(C)n[nH]c2C)c1
- AC50 [1]: 12.6 µM [falling, partial curve]

SMILES: COc1ccc(CNc2oc(COc3cccc(C)c3)nc2C#N)cc1
- AC50 [1]: 25.1 µM [falling, single point]

SMILES: CCCc1ccc(OCc2ccc(C(=O)N3CCN(c4ccccn4)CC3)o2)c(OC)c1
- AC50 [1]: 7.94 µM [falling, full curve]

SMILES: COc1cccc2cc(-c3nnc(-c4ccc(Cl)cc4)o3)c(=O)oc12
- AC50 [1]: 7.94 µM [falling, partial curve]

SMILES: CCc1nn(CC(=O)N2CCN(c3cccc(C(F)(F)F)c3)CC2)c(=O)c2cc3occc3n12
- AC50 [1]: 15.8 µM [falling, single point]

SMILES: CCN(CC)S(=O)(=O)c1cccc(C(=O)Nc2ccc(Cl)cn2)c1
- AC50 [1]: 12.6 µM [falling, partial curve]

SMILES: CCOC(=O)Cc1csc(NC(=O)c2ccc(Br)s2)n1
- AC50 [1]: 10 µM [falling, partial curve]

SMILES: COc1ccc2c(CNCc3cccs3)c(C(=O)O)n(Cc3ccc(F)cc3Cl)c2c1
- AC50 [1]: 12.6 µM [falling, partial curve]

SMILES: CC(C)CCOc1ccc(Oc2nc(N(C)C)nc(N(C)C)n2)nn1
- AC50 [1]: 31.6 µM [falling, single point]

SMILES: CCCCNS(=O)(=O)c1ccc2nc(SCC(=O)Nc3sccc3C#N)[nH]c2c1
- AC50 [1]: 25.1 µM [falling, partial curve]

SMILES: COc1ccc(NC(=O)CN(C)S(=O)(=O)c2ccc3c(c2)CCCN3C(C)=O)cc1Cl
- AC50 [1]: 0.0794 µM [falling, full curve, poor fit]

SMILES: Cc1cc(Nc2ccc(C(C)C)cc2)nc(-n2nc(C)cc2C)n1
- AC50 [1]: 39.8 µM [falling, single point]

SMILES: CC(C)Oc1cccc(C(=O)Nc2ccc(-c3nc4cc(Cl)cc(Cl)c4o3)cc2)c1
- AC50 [1]: 7.94 µM [falling, partial curve]

SMILES: Cc1cccc2sc(N(Cc3cccnc3)C(=O)Cc3ccccc3)nc12
- AC50 [1]: 39.8 µM [falling, single point]
